At least one compound was matched to its structure with a doubt left.
Key:
[1] = test system: Leptosphaeria nodorum; assay: Leptosphaeria nodorum test (wheat)/protective; type: in vivo; conditions: sprayed, evaluation 10 days after inoculation
Description: Leptosphaeria nodorum test (wheat)/protective Solvent: 100 parts by weight of dimethylformamide Emulsifier: 0.25 parts by weight of alkylaryl polyglycol ether To produce a suitable preparation of active compound, 1 part by weight of active compound is mixed with the stated amounts of solvent and emulsifier, and the concentrate is diluted with water to the desired concentration. To test for protective activity, young plants are sprayed with the preparation of active compound until dew-moist. After the spray coating has dried on, the plants are sprayed with a conidia suspension of Leptosphaeria nodorum. The plants remain for 48 hours in an incubation cabinet at 20° C. and 100% relative atmospheric humidity. The plants are placed in a greenhouse at a temperature of about 15° C. and a relative atmospheric humidity of about 80%. Evaluation is effected 10 days after the inoculation.

[2] = test system: Cochliobolus sativus; assay: Cochliobolus sativus test (barley)/protective; type: in vivo; conditions: sprayed, evaluation 7 days after inoculation
Description: Cochliobolus sativus test (barley)/protective Solvent: 100 parts by weight of dimethylformamide Emulsifier: 0.25 parts by weight of alkylaryl polyglycol ether To produce a suitable preparation of active compound, 1 part by weight of active compound is mixed with the stated amounts of solvent and emulsifier, and the concentrate is diluted with water to the desired concentration. To test for protective activity, young plants are sprayed with the preparation of active compound until dew-moist. After the spray coating has dried on, the plants are sprayed with a conidia suspension of Cochliobolus sativus. The plants remain in an incubation cabinet for 48 hours at 20° C. and 100% relative atmospheric humidity. The plants are placed in a greenhouse at a temperature of about 20° C. and a relative atmospheric humidity of about 80%. Evaluation is carried out 7 days after the inoculation.

Row | Structure (SMILES) | protective activity [1] | protective activity [2]
1 | O=c1c(-c2ccccc2)c[nH]n1-c1ncccn1 [Example 81, 1-pyrimid-2-yl-4-phenyl-pyrazolin-5-one] | clearly superior activity compared with the prior art | –
2 | O=c1c(-c2ccc(Cl)cc2)c[nH]n1-c1ncccn1 [Example 85, 1-pyrimid-2-yl-4-(4-chlorophenyl)-pyrazolin-5-one] | – | clearly superior activity compared with the prior art

— patent US4663327A, “1-heteroaryl-4-aryl-pyrazolin-5-ones” (priority 1984, dated 1987)
